Reference: article PMC4228055
No constants are given. Whether binding was seen depends on the method and setting. In cells and extracts the contact can be indirect. Some binding calls cover weakened binding; strength is not graded here.

Protein sequences, listed by entry. Tags and fused reporters are not part of them.
UniProt P20263: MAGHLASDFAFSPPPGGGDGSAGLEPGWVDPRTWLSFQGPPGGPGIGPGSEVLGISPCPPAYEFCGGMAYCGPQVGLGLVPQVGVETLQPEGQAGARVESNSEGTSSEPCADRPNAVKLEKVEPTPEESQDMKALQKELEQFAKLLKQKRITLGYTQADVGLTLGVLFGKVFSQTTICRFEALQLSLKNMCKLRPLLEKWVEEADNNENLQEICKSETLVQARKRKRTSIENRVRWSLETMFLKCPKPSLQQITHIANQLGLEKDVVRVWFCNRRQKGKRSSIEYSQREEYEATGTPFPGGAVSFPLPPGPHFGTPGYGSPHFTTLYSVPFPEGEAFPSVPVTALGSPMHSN

B1: p120-catenin (protein, UniProt P30999 1-938)
chain: MDDSEVESTASILASVKEQEAQFEKLTRALEEERRHVSAQLERVRVSPQDANSLMANGTLTRRHQNGRFVGDADLERQKFSDLKLNGPQDHNHLLYSTIPRMQEPGQIVETYTEEDPEGAMSVVSVETTDDGTTRRTETTVKKVVKTMTTRTVQPVPMGPDGLPVDASAVSNNYIQTLGRDFRKNGNGGPGPYVGQAGTATLPRNFHYPPDGYGRHYEDGYPGGSDNYGSLSRVTRIEERYRPSMEGYRAPSRQDVYGPQPQVRVGGSSVDLHRFHPEPYGLEDDQRSMGYDDLDYGMMSDYGTARRTGTPSDPRRRLRSYEDMIGEEVPPDQYYWAPLAQHERGSLASLDSLRKGMPPPSNWRQPELPEVIAMLGFRLDAVKSNAAAYLQHLCYRNDKVKTDVRKLKGIPILVGLLDHPKKEVHLGACGALKNISFGRDQDNKIAIKNCDGVPALVRLLRKARDMDLTEVITGTLWNLSSHDSIKMEIVDHALHALTDEVIIPHSGWEREPNEDCKPRHIEWESVLTNTAGCLRNVSSERSEARRKLRECDGLVDALIFIVQAEIGQKDSDSKLVENCVCLLRNLSYQVHREIPQAERYQEALPTVANSTGPHAASCFGAKKGKDEWFSRGKKPTEDPANDTVDFPKRTSPARGYELLFQPEVVRIYISLLKESKTPAILEASAGAIQNLCAGRWTYGRYIRSALRQEKALSAIAELLTSEHERVVKAASGALRNLAVDARNKELIGKHAIPNLVKNLPGGQQNSSWNFSEDTVVSILNTINEVIAENLEAAKKLRETQGIEKLVLINKSGNRSEKEVRAAALVLQTIWGYKELRKPLEKEGWKKSDFQVNLNNASRSQSSHSYDDSTLPLIDRNQKSDKKPDREEIPMSNMGSNTKSLDNNYSTLNERGDHNRTLDRSGDLGDMEPLKGAPLMQKI
B2: β-catenin, Q02248 1-781 (protein)
chain: MATQADLMELDMAMEPDRKAAVSHWQQQSYLDSGIHSGATTTAPSLSGKGNPEEEDVDTSQVLYEWEQGFSQSFTQEQVADIDGQYAMTRAQRVRAAMFPETLDEGMQIPSTQFDAAHPTNVQRLAEPSQMLKHAVVNLINYQDDAELATRAIPELTKLLNDEDQVVVNKAAVMVHQLSKKEASRHAIMRSPQMVSAIVRTMQNTNDVETARCTAGTLHNLSHHREGLLAIFKSGGIPALVKMLGSPVDSVLFYAITTLHNLLLHQEGAKMAVRLAGGLQKMVALLNKTNVKFLAITTDCLQILAYGNQESKLIILASGGPQALVNIMRTYTYEKLLWTTSRVLKVLSVCSSNKPAIVEAGGMQALGLHLTDPSQRLVQNCLWTLRNLSDAATKQEGMEGLLGTLVQLLGSDDINVVTCAAGILSNLTCNNYKNKMMVCQVGGIEALVRTVLRAGDREDITEPAICALRHLTSRHQEAEMAQNAVRLHYGLPVVVKLLHPPSHWPLIKATVGLIRNLALCPANHAPLREQGAIPRLVQLLVRAHQDTQRRTSMGGTQQQFVEGVRMEEIVEGCTGALHILARDVHNRIVIRGLNTIPLFVQLLYSPIENIQRVAAGVLCELAQDKEAAEAIEAEGATAPLTELLHSRNEGVATYAAAVLFRMSEDKPQDYKKRLSVELTSSLFRTEPMAWNETADLGLDIGAQGEALGYRQDDPSYRSFHSGGYGQDALGMDPMMEHEMGGHHPGADYPVDGLPDLGHAQDLMDGLPPGDSNQLAWFDTDL

Assays:
[1] = biological target: FLAG-tagged Oct4 (mouse) (UniProt P20263); experiment: co-IP; postnuclear membrane fractions of FLAG-tagged POUV-protein-rescued ZHBTc4 ESC lines grown in self-renewing conditions; precipitated with either E-cadherin or FLAG tag antibody, IgG control; immunoblot; conditions designed to detect interactions between membrane proteins
[2] = biological target: FLAG-tagged Oct4 (mouse), P20263; experiment: as above; conditions: remark: other sources report otherwise

| Binder | binding [1] | binding [2] |
| --- | --- | --- |
| B1 | binds | – |
| B2 | – | binds |
